Earlier results as cited in US7588892B2, “Reagent sets and gene signatures for renal tubule injury” (Entelos, Inc., priority 2004, dated 2009).

Test system: renal tubules
Details: rats, daily dose, route and vehicle of Table 2, day 5/7; absence of nephrotoxicity asserted from PDR and published literature; no histological injury on day 5/7; cited from earlier work

CCC[C@@H]1C[C@@H](C(=O)N[C@@H]([C@H]2O[C@H](SC)[C@H](O)[C@@H](O)[C@H]2O)[C@H](C)Cl)N(C)C1 [CLINDAMYCIN]
Class (nephrotoxic / non-nephrotoxic training label): Non-nephrotoxic
